These are yes or no findings as the source states them, for the method shown. Some binding calls cover weakened binding; strength is not graded here.

Protein sequences, listed by entry. Tags and fused reporters are not part of them. Lines headed by an entry give the natural chain unless they say otherwise; changes in a name come on top. Chains listed by the source or under a name are the forms on record and can include a tag or linker.
cynomolgus macaque HER3 (G7PIG5, form named): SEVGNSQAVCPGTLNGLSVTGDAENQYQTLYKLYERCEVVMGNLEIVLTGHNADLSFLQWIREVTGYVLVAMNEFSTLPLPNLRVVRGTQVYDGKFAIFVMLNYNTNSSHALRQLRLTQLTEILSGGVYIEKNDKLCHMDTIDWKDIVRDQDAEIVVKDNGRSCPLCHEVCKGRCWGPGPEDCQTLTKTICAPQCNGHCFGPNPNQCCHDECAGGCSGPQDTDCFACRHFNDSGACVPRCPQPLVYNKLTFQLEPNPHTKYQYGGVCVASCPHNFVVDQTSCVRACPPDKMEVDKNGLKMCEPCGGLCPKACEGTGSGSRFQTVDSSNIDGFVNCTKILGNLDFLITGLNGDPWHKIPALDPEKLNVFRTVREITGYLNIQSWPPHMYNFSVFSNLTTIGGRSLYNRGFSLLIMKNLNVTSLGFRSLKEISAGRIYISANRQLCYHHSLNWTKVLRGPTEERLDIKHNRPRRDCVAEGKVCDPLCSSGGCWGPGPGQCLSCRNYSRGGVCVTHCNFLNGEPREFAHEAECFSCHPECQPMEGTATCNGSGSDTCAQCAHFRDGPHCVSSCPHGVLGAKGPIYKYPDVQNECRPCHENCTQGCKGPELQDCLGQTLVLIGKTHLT

Assay [1] has as its target cynomolgus macaque HER3 (cynomolgus macaque) (UniProt G7PIG5). Put plainly: ELISA, plate coated with 0.1 ug/ml target polypeptide, antibody titrated, absorbance 450 nm.
For assay [2] the target is unchanged. Briefly: ELISA, plate-coated target. (In an ELISA, binding on a coated surface is turned into a signal by an enzyme label.)

B1: anti-HER3 clone 4-35-B4 IgG1 (antibody, V domains shown)
VH: EVQLQQSGAELVKPGASVKLSCTASGFNIKDTYIHWVKQRPDQGLEWIGKIIDPANGNTNYDPKFQGKATITADTSSNTAYLQLSSLSSEDTAVYFCARGLHWGQGTTLTVSS
VL: DIVLTQSPASLAVSLGQRATISCRASKSVSTSGYSYMHWYQQKPGQPPKLLIYLASNLESGVPARFSGSGSGTDFTLNIHPVEEEDAATYYCQHSRELPYTFGGGTKLEIKR
Turning to B1, the binding entry in assay [1] and in assay [2] was “binds” throughout.

B2: anti-HER3 clone 4-35-B2 IgG1 (antibody, V domains shown)
VH: EIQLQQSGPELVKPGASVKVSCKASGYSFTDYNMYWVKQSHGKSLEWIGHINPYNGGTTYNQKFKGRATLTVDKSSSTAFMHLNSLTSEDSAVYFCVSLRWGAMDYWGQGTSVTVSS
VL: QIVLTQSPALMSASPGEKVTMTCSASSSVSYMYWYQQKPRSSPKPWIYLTSNLASGVPARFSGSGSGTSYSLTISSMEAEDAATYYCQQWNSNPYTFGGGTKLEIKR
As to B2, the binding result in assay [1] and in assay [2] was “binds” each time.

Source of the values: patent US20210155712A1.
